In publication PMC5362243, “A rare IL33 loss-of-function mutation reduces blood eosinophil counts and protects from asthma” (PLoS Genetics, 2017):
These are yes or no findings as the source states them, for the method shown.

The chains behind the UniProt entries cited, without tags or fusion partners. Residues count along the entry.
UniProt Q01638, residues 19-328: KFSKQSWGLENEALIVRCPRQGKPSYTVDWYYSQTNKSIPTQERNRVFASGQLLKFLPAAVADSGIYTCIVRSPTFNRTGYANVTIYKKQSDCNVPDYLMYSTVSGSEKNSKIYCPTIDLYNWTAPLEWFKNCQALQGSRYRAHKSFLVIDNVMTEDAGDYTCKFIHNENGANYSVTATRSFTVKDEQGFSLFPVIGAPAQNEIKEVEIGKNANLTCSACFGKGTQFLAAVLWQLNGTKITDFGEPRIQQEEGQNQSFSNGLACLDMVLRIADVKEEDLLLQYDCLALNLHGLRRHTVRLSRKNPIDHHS

Target: Human ST2-Flag-His (recombinant IL-33R, extracellular domain) (human) (UniProt Q01638)
Experiment: SPR; Biacore T200, CM5 chip; human ST2-Flag-His captured by amine-coupled penta-His antibody; IL-33 variants injected at 200 nM (180 s association, 300 s dissociation); 25°C, HBS-P (10 mM HEPES pH 7.4, 150 mM NaCl, 0.05% P20); single replicate; both purified

binding: no binding (tested: 200 nM)
B1: IL-33 (95-204), truncated mutant (rs146597587-C-associated form) (domain or fragment, UniProt O95760-1 95-204)
chain: AFGISGVQKYTRALHDSSITGISPITEYLASLSTYNDQSITFALEDESYEIYVEDLKKDEKKDKVLLSYYESQHPSNESGDGVDGKMLMVTLSPTKDFWLHANNKEHSVE
